# PubChem BioAssay AID652272, Drosophila RNAi Screening Center, 2013
# Assay: 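Finding fly genes that regulate Hedgehog signal transduction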 (primary screen)
# Cell system: Drosophila clone 8 (Cl8) cells
# Reagents: long dsRNA against Drosophila genes
# Measured: 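Plate reader light from a firefly reporter under a ptc promoter fragment that responds to Hedgehog, with Renilla light as transfection reference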
# Scale: firefly Hh reporter signal: higher = more ptc reporter light; Renilla reference signal: higher = more Renilla control light
# Hit rule: 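Called a hit if the two-replicate mean z-score lies below -2 or above +3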
# Meaning of the calls: active = hit: reporter lowered or raised; inactive = not a hit
# In all, the deposit lists about 21,000 reagents; shown is an unselected part of those that have a named target and a result. Over the whole deposit, 503 (2.4%) are marked active. 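Raw plate light values, not normalised; calls rest on replicate z-scores that were not deposited; hits include reporter decreases as well as increases.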 The record does not give: the amount of reagent, the time to read-out.
Target gene,amplicon,"firefly Hh reporter signal, replicate 1","firefly Hh reporter signal, replicate 2","firefly Hh reporter signal, replicate 3","Renilla reference signal, replicate 1","Renilla reference signal, replicate 2",Outcome
Hrb27C,DRSC03347,68976,38660,,3362,2128,inactive
Cerk,DRSC12285,1.15e5,1.19e5,,4528,4390,inactive
CG16998,DRSC10235,54384,48731,,6316,3600,inactive
ken,DRSC04696,25067,17312,,1829,1024,active
Zip88E,DRSC15562,98451,1.01e5,,1968,2292,inactive
Grl40a,DRSC03677,1.15e5,2.07e5,,3400,8819,inactive
CG6839,DRSC10723,52324,63659,,2083,2552,inactive
CrebB,DRSC20232,67587,1.24e5,,2102,6498,inactive
Odc1,DRSC07482,1.06e5,69361,,4056,2435,inactive
Patronin,DRSC06756,77640,90323,,1734,6360,inactive
Patronin,DRSC06757,97441,42592,,2933,3175,inactive
Patronin,DRSC06994,83220,60480,,2539,4728,inactive
CG42493,DRSC05309,1.75e5,2.41e5,,4374,10729,inactive
CG10171,DRSC09711,1.42e5,78184,,5809,2213,inactive
gammaSnap1,DRSC04686,1.49e5,65100,,5716,2838,inactive
RpL19,DRSC04649,16352,16982,,1200,1344,active
Stim,DRSC20158,74315,61521,,1233,1269,inactive
retinin,DRSC09940,95075,,,4584,2737,inactive
Lon,DRSC11049,75863,55171,,2618,1813,inactive
AstC-R2,DRSC10051,1.55e5,,,7718,4343,inactive
loj,DRSC09791,1.02e5,74295,,5276,3095,inactive
Srg3,DRSC08984,1.34e5,2.69e5,,3764,12265,inactive
Srg3,DRSC10178,33968,64605,62250,6653,4793,inactive
Grl62a,DRSC07963,1.20e5,1.99e5,,3558,8908,inactive
NimC2,DRSC01881,1.41e5,51499,,3467,4866,inactive
HPS1,DRSC06195,94710,65188,,2614,2244,inactive
CG5715,DRSC15860,4.11e5,63728,,21749,2593,inactive
TotB,DRSC15842,5.64e5,89575,,29210,2096,inactive
CG15635,DRSC00470,1.31e5,7.62e5,63553,3171,41984,inactive
CG32365,DRSC10040,69420,53319,,6984,4073,inactive
CG32365,DRSC10041,15105,10728,,2042,836,inactive
CG32365,DRSC10977,30838,22083,,2696,1622,inactive
upd3,DRSC19636,78611,2.54e5,,2139,10971,inactive
upd3,DRSC19968,1.17e5,3.61e5,,3475,13973,inactive
Cyp6a16Psi (retired record),DRSC03307,87760,41936,,1688,4165,inactive
mRpS18B,DRSC02107,84074,60861,,3500,2107,inactive
CG14983,DRSC08441,90117,40497,,2304,3588,inactive
fd59A,DRSC04685,72491,54420,,3239,2185,inactive
CG31122,DRSC14787,1.07e5,4.56e5,74856,4450,28890,inactive
CG31122,DRSC16286,6.71e5,1.36e5,,33216,3627,inactive
Klc,DRSC11203,1.03e5,58777,,4644,2621,inactive
CG1637,DRSC18865,5.15e5,1.58e5,,26796,3787,inactive
CG1637,DRSC19748,74784,97186,,1528,2295,inactive
CG1637,DRSC19749,67328,2.22e5,,2029,8147,inactive
CG12692,DRSC17881,92310,2.15e5,,3320,7373,inactive
CG2921,DRSC04324,55284,58230,,2584,2208,inactive
CG34198,DRSC05803,1.17e5,2.36e5,,3353,9277,inactive
Mmp1,DRSC04493,72665,41041,,1771,3425,inactive
CG18788,DRSC02697,88380,52235,,2312,4416,inactive
ps,DRSC15149,54903,91515,,1700,2528,inactive
ps,DRSC15151,55191,46771,,1875,1488,inactive
ps,DRSC15152,62500,65660,,2249,2068,inactive
ps,DRSC16388,50860,92291,,852,2448,inactive
Ufc1,DRSC07156,1.01e5,76912,,4634,2973,inactive
ND-13B,DRSC10643,48337,31792,61126,4411,4128,inactive
CG34327,DRSC19517,1.18e5,3.09e5,,3153,13504,inactive
CG5909,DRSC15914,69696,88084,,2540,2210,inactive
